Data published in US20100226857A1, “TUMOR CELL DIFFERENTIATION AGENTS AS CHEMICAL INHIBITORS AND TREATMENTS FOR INTRACELLULAR PARASITES” (priority 2006, published 2010).
Some entries share one result that the patent states for a list of compounds.

Tested on: T. gondii tachyzoites
Test: T. gondii tachyzoite proliferation assay in HS68 cells (tachyzoite count)
Format: cell-based, Toxoplasma gondii
Details: RH strain in HS68 cells; read-out: IC50 range of carboxylate inhibitors
Description: Parasite propagation—The RH strain of Toxoplasma gondii was grown in BM bovine macrophage cells or HS68 human foreskin fibroblast cells obtained from the American Type Culture Collection (Rockville, Md.). HS68 cells were grown in RPMI 1640 medium (Mediatech, Inc., Herndon, Va.) plus 10% fetal bovine serum (Atlanta Biologicals, Lawrenceville, Ga.), 1 mM sodium pyruvate and 100 U/ml each of penicillin and streptomycin. Parasites were harvested from infected cultures of HS68 cells growing in T-75 cm^2 flasks. After removing the culture medium, the cells were scraped into 5 ml of phosphate-buffered saline and a cell lysate obtained by passing through a 26-gauge needle. To purify the parasites, the cell lysate was filtered through a 3 micron (micrometer) filter.
Proliferation assays: HS68 cells were replica plated in 48-well dishes, and grown to confluence prior to infection with 5-10×10^4 freshly purified T. gondii tachyzoites/well. […] The tachyzoites were resuspended in 100 ul of phosphate-buffered saline, and duplicate aliquots were counted using a hemocytometer. […] The minimum inhibitory concentration (MIC) of compounds that suppressed Toxoplasma-induced lysis of the HS68 cells was determined visually by counting the number of plaques/well in the monolayer.

## 4-phenylbutyrate
  IC50: 1000 to 5000 µM
